Measured values published in paper PMC12218971.

Protein sequences, listed by entry. Tags and fused reporters are not part of them. Lines headed by an entry give the natural chain unless they say otherwise; changes in a name come on top.
UniProt Q9VIE8: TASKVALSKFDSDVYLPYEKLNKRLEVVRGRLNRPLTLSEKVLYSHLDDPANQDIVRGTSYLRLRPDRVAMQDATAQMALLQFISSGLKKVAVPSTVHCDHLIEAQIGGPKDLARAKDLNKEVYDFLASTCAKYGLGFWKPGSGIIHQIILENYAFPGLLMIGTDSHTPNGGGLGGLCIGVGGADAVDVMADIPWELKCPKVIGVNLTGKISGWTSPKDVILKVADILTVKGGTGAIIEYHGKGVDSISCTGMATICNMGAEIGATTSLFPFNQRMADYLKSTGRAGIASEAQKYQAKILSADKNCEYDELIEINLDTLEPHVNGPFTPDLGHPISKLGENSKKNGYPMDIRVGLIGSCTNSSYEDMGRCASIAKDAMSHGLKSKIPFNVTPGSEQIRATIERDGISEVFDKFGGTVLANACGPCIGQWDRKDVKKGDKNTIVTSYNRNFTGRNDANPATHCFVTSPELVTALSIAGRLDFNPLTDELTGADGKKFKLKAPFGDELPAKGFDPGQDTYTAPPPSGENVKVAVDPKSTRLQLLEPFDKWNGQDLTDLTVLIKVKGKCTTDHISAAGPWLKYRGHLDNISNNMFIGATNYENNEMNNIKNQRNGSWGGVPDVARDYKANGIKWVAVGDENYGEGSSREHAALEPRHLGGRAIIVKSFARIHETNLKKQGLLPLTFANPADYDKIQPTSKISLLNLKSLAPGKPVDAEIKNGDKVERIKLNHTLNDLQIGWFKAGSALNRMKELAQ

Target: T1, Hsp22-3xFLAG (Drosophila) (UniProt P02515)
T1 sequence: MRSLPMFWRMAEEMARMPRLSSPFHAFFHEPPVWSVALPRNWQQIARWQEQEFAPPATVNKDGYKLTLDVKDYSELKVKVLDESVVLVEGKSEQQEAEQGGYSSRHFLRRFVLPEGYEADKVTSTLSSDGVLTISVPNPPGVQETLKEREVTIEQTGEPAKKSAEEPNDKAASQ
Assay: co-IP; S2 cells expressing Hsp22-3xFLAG (bait) and a 5xMyc-tagged prey from one pAc5-STABLE-neo plasmid (T2A); M2 anti-FLAG agarose beads; Western blot with anti-FLAG and anti-Myc

## mAcon1-5xMyc (from UniProt Q9VIE8)
  binding: binds

These are yes or no findings as the source states them, for the method shown. Binding seen in cells or lysates may run through a third protein. Binding calls can cover weak binding; strength is not graded here. Where a sequence is shown, tags or fusion partners need not be part of it.
